Reference: the supplement of paper PMC12889115
Some of the results follow. Values are raw readings; no control value is given beside them.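 Primary screen: polymyxin B was added at a level permeabilizing Salmonella outer membranes while sparing inner membranes. DMSO wells, both with and without polymyxin B, established maximum growth. Plate-to-plate variation meant each plate was ranked on its own, and the lowest-OD600 compounds were selected as hits.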

Test system: Salmonella enterica serovar Typhimurium SL1344
Experiment: bacterial growth OD600 after 18 h with compound and polymyxin B; higher = more bacterial growth (less inhibition)
Details: 50 µM, Mueller-Hinton broth

SMILES	bacterial growth OD600 (polymyxin B 0.75 µg/mL)	bacterial growth OD600 (polymyxin B 1 µg/mL)
CCCCN(C)C(=O)C1CCCN(c2nc(C)c3ccc(S(C)(=O)=O)cc3n2)C1 (stereo not given)	0.698	–
Cc1cc(C)n2nc(C(=O)N3CCCC(Nc4ccc(F)c(F)c4)C3)cc2n1 (stereo not given)	–	0.845
COc1cccc(OC)c1CN1CCC(c2nc(-c3ccncc3)ncc2-c2cccc(C)c2)CC1	0.811	–
COC(=O)CCCC(=O)N1CCCC(Nc2ccc(C(C)C)cc2)C1 (stereo not given)	–	0.936
Cn1c(C(=O)N2CCC(CCC(=O)NCc3cccnc3)CC2)cc2ccccc21	–	1.06
CCOC(=O)C1(CCCc2ccccc2)CCCN(C(=O)c2cc(C)c(C)[nH]c2=O)C1 (stereo not given)	–	1.18
CCOC(=O)N1CCN(Cc2ccc3c(c2)CN(C(=O)C2Cc4ccccc4O2)CCO3)CC1 (stereo not given)	0.777	–
O=C(COc1ccccc1)Nc1ccc(N2CCC(NC[C@H]3CCc4ccccc4O3)CC2)cc1	0.92	–
COCCn1cc(C(=O)NCCc2cccc(Cl)c2)c(=O)c(C(=O)N2CCCC(C)C2)c1 (stereo not given)	0.828	–
COc1ccc(CN2CCCC(CCC(=O)NCc3ccc(OC)cc3OC)C2)cc1 (stereo not given)	0.785	–
COC(=O)C1CCN(C(=O)c2oc3ccc(C)cc3c2C)CC1	–	1.07
COC(=O)CN(C)C(=O)CC(c1ccccc1)c1ccc(Cl)cc1 (stereo not given)	–	0.714
C=CCN(CC=C)C(=O)c1cc(COc2c(C)cccc2C)on1	0.607	–
CCC1C(=O)NCCN1C(=O)c1csc2nc(-c3cccc(Cl)c3)cn12 (stereo not given)	0.651	–
CN(C)S(=O)(=O)Nc1ccc(N2CCC(NCC3(c4ccccc4)CCOCC3)CC2)cc1	0.866	–
CC(=O)NC(C(=O)N1CCC(C(Cc2ccccc2C)N(C)C(=O)Cn2cccn2)CC1)C(C)C (stereo not given)	0.883	–
COc1cccc(CC2=NOC(C(=O)NCc3ccc(F)c(F)c3)C2)c1 (stereo not given)	0.742	–
COCCN(C)C(=O)c1coc(COc2ccc(F)cc2Cl)n1	–	1.13
CC(=O)N1CCCC1C(=O)Nc1cccc(-n2cccn2)c1 (stereo not given)	–	0.803
CCOC(=O)C1(CCOc2ccccc2)CCCN(C(=O)c2ccc(OC)o2)C1 (stereo not given)	–	0.728
COc1cccc(-c2noc(-c3ccc(NCc4ccccc4)nc3)n2)c1OC	0.871	–
COc1ccccc1C1CN(CCNC(=O)c2cc(C)[nH]n2)Cc2ccccc2O1 (stereo not given)	0.845	–
COc1ccc(-n2ccnc2CN2CCCC(CCC(=O)N3CCOCC3)C2)cc1 (stereo not given)	–	1.03
c1ccc(CC2CN(Cc3nc4c(s3)CCCC4)CCO2)cc1 (stereo not given)	0.662	–
CCn1ccnc1CN(C)CC1CCN(CCc2ccc(OC)cc2)CC1	–	1.1
CCOC(=O)N1CCN(C(=O)c2ccc(N3CCC(NCc4cc(F)cc(F)c4)CC3)cc2)CC1	0.821	–
COC(=O)[C@@H](NC(=O)c1cc(OC)ccc1OC1CCN(C(=O)C2CC2)CC1)C(C)C	–	1.24
CCCCN(C)C(=O)C1CCC(=O)N(CCc2cccc(F)c2)C1 (stereo not given)	–	0.944
COc1ccc(CNC(=O)C2CCCN(c3nc(C)c4ccc(S(C)(=O)=O)cc4n3)C2)c(OC)c1 (stereo not given)	0.862	–
COCCN1C(=O)CC(CC(=O)N2CCN(Cc3ccccc3)CC2)(c2ccccc2F)C1=O (stereo not given)	0.819	–

By substructure: the entries above containing sulfur
SMILES	bacterial growth OD600 (polymyxin B 0.75 µg/mL)	bacterial growth OD600 (polymyxin B 1 µg/mL)
CCCCN(C)C(=O)C1CCCN(c2nc(C)c3ccc(S(C)(=O)=O)cc3n2)C1 (stereo not given)	0.698	–
CCC1C(=O)NCCN1C(=O)c1csc2nc(-c3cccc(Cl)c3)cn12 (stereo not given)	0.651	–
CN(C)S(=O)(=O)Nc1ccc(N2CCC(NCC3(c4ccccc4)CCOCC3)CC2)cc1	0.866	–
c1ccc(CC2CN(Cc3nc4c(s3)CCCC4)CCO2)cc1 (stereo not given)	0.662	–
COc1ccc(CNC(=O)C2CCCN(c3nc(C)c4ccc(S(C)(=O)=O)cc4n3)C2)c(OC)c1 (stereo not given)	0.862	–
